According to US4288609A, “Quaternary ammonium derivatives of adamantane with antimicrobic activity” (priority 1976, dated 1981):
At least one compound was matched to its structure with a doubt left.

How the values were obtained:
[1] = tested on: Escherichia Coli SKF 12140; experiment: Speed of sterilising action, Escherichia Coli (Table 3); format: cell-based; conditions: even in the very high concentration tested
Protocol: (§1) The strains, inoculants, culture broths and experimental methods are as already seen for calculating the M.I.C. in vitro. The antimicrobic substances were tested at concentrations of 0.1, 0.25, 0.5 and 1 g/l, the contact times taken into consideration are 0, 1, 2.5, 5, 7.5, 10, 15, 30 and 60 minutes.
(§2) The samples which at the 7th day of incubation still had no growth of micro-organisms which could be observed macroscopically and/or microscopically were considered sterile.
(§3) The results are recorded in Table 3 in terms of sterilization time expressed in minutes.

Pseudomonas Aeruginosa = experiment: Antibacterial activity in vivo with topical treatment (Table 5); set-up: species or system female CF1 albino mice
Protocol: After their backs have been shaved, female CF1 albino mice weighing 18-22 g are scorched (under ether anaesthetic) for 15 seconds with a pad of brass previously immersed in boiling water (7-8% of the body surface). After 90 minutes there is applied to the scorched area 0.1 ml of a suspension of Pseudomonas Aeruginosa bacteria having 15% transmittance at 650 nm. The bacterial strain in question produces a high incidence of mortality, induced by septicemic diffusion from the point of infection. After 90 minutes, with the aid of a glass rod suitably flattened at one end, the preparation containing a known concentration of the compound under examination is applied locally. The treatment is continued for a total of six days (once per day). On the fifteenth day the percentage of survivors to the tested doses in recorded.
The carrier used for applying the compounds under examination is an aqueous 0.75% solution of carboxymethyl-cellulose. The concentrations of the compounds tested are 2, 1, 0.5 and 0.25% by weight.

[2] = tested on: Candida Albicans SKF 2270; experiment: Speed of sterilising action, Candida Albicans (Table 3); format: cell-based
Protocol: as §1, §2, §3

Structure (SMILES): CCCCCCCCCCCCCCCC[n+]1ccccc1 [Cetyl pyridine chloride, cetyl pyridine chloride, reference compound]
- sterilising action on Escherichia coli (in words) [1]: not capable of exerting its action
- antibacterial action in vivo (in words) (Pseudomonas Aeruginosa; 2% concentration): hardly shown
- antibacterial action in vivo (in words) (Pseudomonas Aeruginosa; concentrations lower than 2%): very doubtful
- sterilising action on Candida Albicans (in words) [2]: acts rather slowly
